Results are given in words; binding and its absence hold for the method and conditions named. In cells and extracts the contact can be indirect. Some results given as binding are weak or reduced against the parent protein; the word gives no strength.
How the values were obtained:
[1] = target: T1, Serine-threonine kinase receptor-associated protein (STRAP) (human (endogenous in SW480, HCT116, HCT116 Bax-/-)) (UniProt Q9Y3F4); test: co-IP; cell extracts of SW480, HCT116 WT and HCT116 Bax-/- cells, with or without sanguinarine treatment; anti-STRAP or anti-MELK antibody at 4 °C overnight, agarose beads, washed five times with lysis buffer; western blotting
T1 sequence: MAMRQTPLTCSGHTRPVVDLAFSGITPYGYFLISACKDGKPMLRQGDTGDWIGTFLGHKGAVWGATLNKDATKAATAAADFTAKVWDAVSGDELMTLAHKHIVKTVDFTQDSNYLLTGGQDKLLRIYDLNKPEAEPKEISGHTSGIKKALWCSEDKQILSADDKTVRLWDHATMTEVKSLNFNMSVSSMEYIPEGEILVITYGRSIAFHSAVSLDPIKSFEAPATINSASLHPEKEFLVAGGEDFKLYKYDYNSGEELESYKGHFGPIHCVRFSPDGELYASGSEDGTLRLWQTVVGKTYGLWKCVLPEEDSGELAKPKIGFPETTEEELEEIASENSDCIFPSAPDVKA

By UniProt entry, the sequences of proteins in these tests, tags left out.
UniProt Q14680: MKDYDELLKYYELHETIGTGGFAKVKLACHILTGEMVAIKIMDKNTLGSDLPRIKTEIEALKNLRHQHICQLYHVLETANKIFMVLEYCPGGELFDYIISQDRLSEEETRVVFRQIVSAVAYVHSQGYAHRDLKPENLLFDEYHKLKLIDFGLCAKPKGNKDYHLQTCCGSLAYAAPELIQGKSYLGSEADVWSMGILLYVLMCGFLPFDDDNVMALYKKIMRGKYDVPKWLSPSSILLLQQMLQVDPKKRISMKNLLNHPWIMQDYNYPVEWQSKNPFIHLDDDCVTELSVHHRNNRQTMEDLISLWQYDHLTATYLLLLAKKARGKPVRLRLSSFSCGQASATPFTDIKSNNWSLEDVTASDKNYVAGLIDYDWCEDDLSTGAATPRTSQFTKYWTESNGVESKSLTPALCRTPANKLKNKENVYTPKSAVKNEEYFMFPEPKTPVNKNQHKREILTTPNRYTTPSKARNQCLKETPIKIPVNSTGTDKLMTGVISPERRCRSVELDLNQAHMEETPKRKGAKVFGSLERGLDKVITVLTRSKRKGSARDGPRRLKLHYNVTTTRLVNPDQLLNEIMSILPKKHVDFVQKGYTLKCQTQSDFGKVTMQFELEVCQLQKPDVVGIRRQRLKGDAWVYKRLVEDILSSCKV

[2] = target: T1, Serine-threonine kinase receptor-associated protein (STRAP) (human (endogenous in SW480, HCT116, HCT116 Bax-/-)); test: co-IP; whole lysates of orthotopic CRC tumor tissue from nude mice (control, sanguinarine 4 or 8 mg/kg/d, cisplatin 1 mg/kg/d); primary antibodies of MELK and STRAP added respectively; western blotting

Maternal embryonic leucine zipper kinase (MELK) (from UniProt Q14680 1-651) (enzyme)
binding [1]: binds | binding [2]: binds

Source: publication PMC5963096
